Assay results reported in article PMC3567137.
Results are given in words; binding and its absence hold for the method and conditions named. Binding seen in cells or lysates may run through a third protein. Some binding calls cover weakened binding; strength is not graded here.

Protein sequences, listed by entry. Tags and fused reporters are not part of them. Lines headed by an entry give the natural chain unless they say otherwise; changes in a name come on top. Chains listed by the source or under a name are the forms on record and can include a tag or linker.
GST-Abd-B313ΔHD (a.a. 313 to 493 lacking HD a.a. 384–445) (P09087, form named): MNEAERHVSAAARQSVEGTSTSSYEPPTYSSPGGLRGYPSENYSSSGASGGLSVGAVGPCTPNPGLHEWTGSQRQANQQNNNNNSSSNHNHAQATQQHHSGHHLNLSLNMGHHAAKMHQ

B1: Extradenticle (Exd) (protein, UniProt P40427 1-376)
chain: MEDPNRMLAHTGGMMAPQGYGLSGQDDGQNAGSENEVRKQKDIGEILQQIMSISEQSLDEAQARKHTLNCHRMKPALFSVLCEIKEKTVLSIRNTQEEEPPDPQLMRLDNMLIAEGVAGPEKGGGGAAAASAAAASQGGSLSIDGADNAIEHSDYRAKLAQIRQIYHQELEKYEQACNEFTTHVMNLLREQSRTRPITPKEIERMVQIIHKKFSSIQMQLKQSTCEAVMILRSRFLDARRKRRNFSKQASEILNEYFYSHLSNPYPSEEAKEELARKCGITVSQVSNWFGNKRIRYKKNIGKAQEEANLYAAKKAAGASPYSMAGPPSGTTTPMMSPAPPQDSMGYPMGSGGYDQQQPYDNSMGGYDPNLHQDLSP
modifications: methionine-S^35 labelled
B2: Homothorax (Hth) (protein, UniProt O46339 1-487)
chain: MAQPRYDDGLHGYGMDSGAAAAAMYDPHAGHRPPGLQGLPSHHSPHMTHAAAAAATVGMHGYHSGAGGHGTPSHVSPVGNHLMGAIPEVHKRDKDAIYEHPLFPLLALIFEKCELATCTPREPGVQGGDVCSSESFNEDIAMFSKQIRSQKPYYTADPEVDSLMVQAIQVLRFHLLELEKVHELCDNFCHRYISCLKGKMPIDLVIDERDTTKPPELGSANGEGRSNADSTSHTDGASTPDVRPPSSSLSYGGAMNDDARSPGAGSTPGPLSQQPPALDTSDPDGKFLSSLNPSELTYDGRWCRREWSSPADARNADASRRLYSSVFLGSPDNFGTSASGDASNASIGSGEGTGEEDDDASGKKNQKKRGIFPKVATNILRAWLFQHLTHPYPSEDQKKQLAQDTGLTILQVNNWFINARRRIVQPMIDQSNRAVYTPHPGPSGYGHDAMGYMMDSQAHMMHRPPGDPGFHQGYPHYPPAEYYGQHL
modifications: methionine-S^35 labelled
B3: Exd/Hth complex (complex, UniProt P40427 1-376; O46339 1-487)
chain 1: B1 chain
chain 2: B2 chain
modifications: methionine-S^35 labelled (in the pull-down)

Columns and labels:
[1] = target: GST-Abd-B313 (Abd-B C-terminal fragment, a.a. 313 to 493) (Drosophila melanogaster) (UniProt P09087); test: pull-down; GST fusion from bacterial crude extract on glutathione agarose beads (30 µg beads-conjugated protein) with 30 µl S^35-labelled in vitro translated protein; binding buffer 10 mM Tris-Cl pH 8, 5 mM EDTA, 0.5% DTT, 1 mM MgCl2, 150 mM NaCl; 4 hr at 4°C; no DNA; phosphorimager; only the target purified
[2] = target: GST-Abd-B313ΔHD (a.a. 313 to 493 lacking HD a.a. 384–445) (Drosophila melanogaster) (UniProt P09087); test: as above
[3] = target: GST-AbdB-HD (Abd-B homeodomain, a.a. 386–446) (Drosophila melanogaster) (UniProt P09087); test: as above
[4] = target: GST-AbdB-HD (Abd-B homeodomain, a.a. 386–446) (Drosophila melanogaster) (UniProt P09087); test: pull-down; as a1, GST-AbdB-HD on beads with S^35-labelled Hth and unlabelled (cold) Exd protein added to the mixture; no DNA; only the target purified

Row | Binder | binding [1] | binding [2] | binding [3] | binding [4]
1 | B1 | binds | binds | binds | 
2 | B2 |  |  | binds weakly | 
3 | B3 |  |  |  | binds
